# Data reported in PubChem BioAssay AID540276 (National Center for Advancing Translational Sciences (NCATS), 2011).
# Hit rate of the full screen: of about 300,000 compounds, about 5,400 (1.8%) were called active. Inconclusive results, whose numbers are uncertain, are shown with a selection of clear calls. Calls come from the whole dose curve; tested in HEK293 cells. Where the call is inconclusive, the potency comes from a doubtful curve fit.
# Assay: qHTS for inhibitors of binding or entry into cells for Marburg Virus
# Settings: Marburg virus pseudotyped entry inhibition, cell reporter; activity change, negative = inhibition: at 37.8 µM (top of the series) unless noted
# % is set by controls: 0 for no effect and ±100 for the full control effect; potency is the fitted concentration of half-maximal effect.
Structure (SMILES),Potency,"activity change, negative = inhibition"
N#Cc1ccc(N/N=C/c2cn(-c3ccccc3)nc2-c2ccccc2)c([N+](=O)[O-])c1,"inconclusive: 35.5 µM [activator, single point]",
NC(=O)c1nsc(C(=O)N(c2cccc(F)c2)C(C(=O)NCC2CCCO2)c2cccs2)c1N (stereo not given),"inconclusive: 10 µM [inhibitor, partial curve, poor fit]",
CC1CCN(Cc2c(C(=O)N/N=C/c3cc(Br)ccc3O)nnn2-c2nonc2N)CC1,active: 2 µM,
Cc1cc(C(=O)COc2cccnc2[N+](=O)[O-])c(C)n1Cc1cccs1,"inconclusive: 10 µM [inhibitor, partial curve]",
C/C(=N/NC(=O)CNC(=O)C1COc2ccccc2O1)c1ccc2c(c1)OCCO2 (stereo not given),,inactive: 0.81% [at 46.1 µM]
N#CC(=C(O)COC(=O)CCCNC(=O)c1ccc(Cl)cc1)c1nc2ccccc2[nH]1,"inconclusive: 35.5 µM [inhibitor, single point]",
Cc1cccc(Nc2c([N+](=O)[O-])c(=O)n(C)c3ccccc23)c1,,inactive: -8.04%
CC(C)C(NC(=O)CSc1ccc(Cl)cc1)C(C)C,,inactive: -18.1%
C=CCc1c(C)nc(SC)nc1Nc1ccc(C(C)=O)cc1,,inactive: -16%
CCOC(=O)Cc1ccc(NC(=O)Nc2nnc(N3CCCCC3C)s2)cc1 (stereo not given),"inconclusive: 35.5 µM [inhibitor, single point]",
Cc1ccc(-n2c(=O)c3c4c(sc3n(CC(=O)C(C)(C)C)c2=O)CCCCC4)cc1C,,inactive: 1.56% [at 46.1 µM]
CCOc1ccc(CN2C(=O)c3ccccc3C2=O)cc1C(=O)N1CCC(C(N)=O)CC1,"inconclusive: 11.2 µM [activator, single point]",
Cc1ccc(-c2csc(/C=C3/SC(C)C(=O)N3CC(=O)Nc3ccccc3F)n2)cc1 (stereo not given),"inconclusive: 1.26 µM [inhibitor, partial curve, poor fit]",
CCn1ncc(C2=NOC(C(=O)NCc3ccc(Cl)cc3)C2)c1C (stereo not given),"inconclusive: 1.46 µM [inhibitor, full curve, poor fit]",
Cc1cc(SCC(=O)N/N=C/c2ccc(C(=O)O)cc2)nc2ccccc12,,inactive: 20.2% [at 46.1 µM]
CCOc1ccc2nc(/N=C/c3c(C)[nH]n(-c4ccccc4)c3=O)sc2c1,,inactive: 3.86%
CCn1nc(C)c(C2C(C#N)=C(N)OC3=C2C(=O)CCC3)c1C (stereo not given),"inconclusive: 1 µM [inhibitor, single point]",
CO/N=C/c1ccc(N2CCN(C(=O)c3cccc(C(F)(F)F)c3)CC2)c([N+](=O)[O-])c1,"inconclusive: 25.9 µM [inhibitor, single point]",
COc1cc(C(=O)N=c2sccn2C)c([N+](=O)[O-])cc1OC,,inactive: 6.49% [at 46.1 µM]
CC(Oc1ccc(C#N)cc1)C(=O)N1CC=C(c2ccccc2)CC1 (stereo not given),"inconclusive: 3.55 µM [inhibitor, partial curve, poor fit]",
CC(=O)NC(=S)Nc1ccccc1N1CCN(C(=O)c2ccccc2)CC1,"inconclusive: 25.1 µM [inhibitor, single point]",
COc1ccc(-n2c(N)c(C(=O)NCC3CCCO3)sc2=S)cc1 (stereo not given),,inactive: 4.59%
CCOc1ccc(-c2cc3cc(OC)c(OC)cc3c(C)n2)cc1,,inactive: 1.02% [at 46.1 µM]
Cc1ccc(S(=O)(=O)/N=C2\C=C(NS(=O)(=O)c3ccccc3)C(=O)c3ccccc32)c(C)c1,,inactive: -0.294% [at 46.1 µM]
COc1cnc(-c2ccccn2)nc1Sc1ccc(F)cc1,"inconclusive: 28.2 µM [inhibitor, single point]",

# One compound at a time, from the list above.
# `Cc1ccc(-n2c(=O)c3c4c(sc3n(CC(=O)C(C)(C)C)c2=O)CCCCC4)cc1C` is entered as activity change, negative = inhibition: inactive: 1.56% [at 46.1 µM]
# `CO/N=C/c1ccc(N2CCN(C(=O)c3cccc(C(F)(F)F)c3)CC2)c([N+](=O)[O-])c1` is entered as Potency: inconclusive: 25.9 µM [inhibitor, single point]

# Continued:

Structure (SMILES),Potency,"activity change, negative = inhibition"
COc1ccccc1N1CCN(C(=O)c2cc(-c3ccccc3)on2)CC1,,inactive: 12.9% [at 46.1 µM]
Cc1ccc(NC(=S)N2CCN(S(=O)(=O)c3ccccc3)CC2)cc1C,,inactive: 7.89% [at 46.1 µM]
COC(=O)c1ccc(/C(O)=C(\C#N)c2nc3ccccc3s2)cc1,"inconclusive: 29.1 µM [inhibitor, single point]",
COC(=O)c1cc(NC(=O)Cc2ccc(OC)c(OC)c2)cc(C(=O)OC)c1,,inactive: 1.24% [at 46.1 µM]
O=C(COc1ccc(Br)cc1Br)NC1CCS(=O)(=O)C1 (stereo not given),"inconclusive: 35.5 µM [inhibitor, single point]",
CCOC(=O)/C(=N/Nc1ccc(C)cc1)S(=O)(=O)c1ccc(Cl)cc1,"inconclusive: 29.1 µM [inhibitor, single point]",
CCOc1ccc(-c2cc3nc(C4CCN(C(=O)OC(C)(C)C)CC4)c(C(=O)Nc4cccc(C(F)(F)F)c4)cn3n2)cc1,,inactive: -5.18% [at 46.1 µM]
C/C(=N\NC(=O)c1cc(-c2cccnc2)nc2ccccc12)c1ccc(O)cc1O,active: 7.08 µM,
COc1ccccc1NC(=O)c1ccc(CN(c2cc(Cl)ccc2C)S(=O)(=O)c2ccccc2)cc1,"inconclusive: 0.562 µM [inhibitor, partial curve, poor fit]",
CC12CC(NC(=O)N1Cc1ccccc1)c1ccccc1O2 (stereo not given),,inactive: 15.2%
COc1ccc(N2CC(C(=O)Nc3nnc(SCc4cccnc4)s3)CC2=O)cc1 (stereo not given),,inactive: 18.2%
COc1ccc(C(=O)COC(=O)c2ccc3ccccc3n2)cc1,"inconclusive: 5.62 µM [activator, single point]",
COC(=O)Oc1ccc(/C=N/NC(=O)CSCc2ccc(Cl)cc2)cc1OC,,inactive: -38.6%
COc1ccc(Br)cc1CNCc1c(C(=O)O)c(C)n(Cc2ccccc2C)c1C,,inactive: -19.6% [at 46.1 µM]
COCCn1ccc2c(OCC(=O)NCCc3ccccc3)cccc2c1=O,,inactive: -18% [at 46.1 µM]
CCOC(=O)c1c(-c2ccccc2)csc1NC(=O)CSc1nnnn1C,"inconclusive: 20.6 µM [inhibitor, single point]",
COC(=O)N[C@@H](c1ccco1)[C@]1(C(=O)OC)CCCC1=O,"inconclusive: 1.19 µM [inhibitor, single point]",
COc1ccc(-c2cc3nc4c(c(=O)n3[nH]2)CCC4)cc1,"inconclusive: 3.16 µM [activator, full curve, poor fit]",
CC(Sc1ccccc1)C(=O)NCC(c1ccco1)N1CCCCC1 (stereo not given),,inactive: -13.5%
O=C(NNS(=O)(=O)c1ccccc1)C1CC(c2cccnc2)=NO1 (stereo not given),"inconclusive: 6.31 µM [activator, single point]",
Oc1cccc(/C=N/Nc2cc(N3CCCC3)nc(N3CCCC3)n2)c1,"inconclusive: 25.1 µM [inhibitor, single point]",
O=C(N=Nc1c(O)[nH]c2ccccc12)c1cccs1,"inconclusive: 2 µM [activator, partial curve, poor fit]",
COc1ccc(-c2cc(C(=O)Oc3ccc(Br)cc3)c3ccccc3n2)cc1,,inactive: 7.38% [at 46.1 µM]
Nc1cc(-c2ccccc2)nn1Cc1ccccc1,"inconclusive: 7.94 µM [inhibitor, single point]",
CCCCOc1ccc(/C=C/C(=O)OCC(=O)N2CC(=O)Nc3ccccc32)cc1OCC,,inactive: -7.72%

Structure (SMILES),Potency,"activity change, negative = inhibition"
COc1ccc(/C=C2\SC(=S)N(CCC(=O)NC3=NCCS3)C2=O)cc1OC,"inconclusive: 1.41 µM [activator, partial curve]",
CCc1ccc2c(c1)c(=O)c(S(=O)(=O)c1ccc(F)cc1)cn2CC(=O)Nc1ccccc1OC,"inconclusive: 35.5 µM [inhibitor, single point]",
CCOC(=O)N1CCN(c2ccnc3cc(Cl)ccc23)CC1,"inconclusive: 6.31 µM [inhibitor, single point]",
Cc1ccsc1/C=N/n1c(-c2ccncc2)n[nH]c1=S,"inconclusive: 4.47 µM [inhibitor, single point]",
Cc1cc(N2CCNCC2)nc2ccccc12,"inconclusive: 6.31 µM [activator, single point]",
O=C(CC(NC(=O)c1ccccc1Cl)c1ccccc1)NCCc1ccc(Cl)cc1 (stereo not given),,inactive: 4.9%
Cc1ccccc1NC(=S)N1CCCCCC1,"inconclusive: 2.82 µM [activator, single point]",
CC(C)Sc1nc(N)c2c3c(sc2n1)CN(C)CC3,,inactive: 3.26%
Cc1ccsc1CN1CCC(C(=O)NCc2ccccc2Cl)CC1,"inconclusive: 1.26 µM [activator, partial curve, poor fit]",
Clc1ccccc1CSc1snnc1-c1ccccc1,,inactive: 2.69%
Nc1nc(N)c(S(=O)(=O)c2ccccc2)c(Nc2ccccc2)n1,"inconclusive: 35.5 µM [inhibitor, single point]",
Cc1ccc(CNC(=O)/C=C/c2ccc(Br)o2)cc1,,inactive: 10.4%
C=C1C(=O)OC2C1CCC(C)C1C=CC(=O)C12C (stereo not given),active: 11.2 µM,
COc1ccc(CCNC(=O)CCc2c(C)c3ccc(O)c(C)c3oc2=O)cc1,,inactive: -4.59% [at 46.1 µM]
COc1cc(/C=N/O)cc(Cl)c1OC,"inconclusive: 2.51 µM [inhibitor, partial curve, poor fit]",
CCCCN(C)CCCNC(=O)CCn1nc(-c2ccccc2)ccc1=O,"inconclusive: 17.8 µM [activator, single point]",
COc1ccc(CN(C(=O)c2cc3ccccc3oc2=O)C2CCCCC2)cc1OC,"inconclusive: 3.66 µM [activator, single point]",
CC(=O)Nc1cc(C)ns1,"inconclusive: 0.1 µM [activator, full curve, poor fit]",
COC(=O)c1ccccc1NC(=O)CN1CCOCC1,,inactive: 4.98%
Cc1ccc(S(=O)(=O)NCC(C)n2cncn2)cc1C (stereo not given),,inactive: 20.5% [at 46.1 µM]
Cc1ccc(/C(O)=C2\C(=O)C(=O)N(C)C2c2cccc([N+](=O)[O-])c2)cc1 (stereo not given),,inactive: -1.39% [at 46.1 µM]
CC1CCN(c2[nH]c(=S)c(C#N)c3c2CCCC3)CC1,"inconclusive: 0.73 µM [inhibitor, full curve, poor fit]",
Cc1ccc(NC(=O)CCNC(=O)c2ccccc2Cl)nc1,,inactive: -0.856%
CCOC(=O)n1ccc(C(=O)Nc2ccccc2F)n1,"inconclusive: 29.1 µM [activator, single point]",
Cc1ccc(C(=O)O/N=C/c2ccc3c(c2)OCO3)cc1,"inconclusive: 8.91 µM [activator, partial curve]",

# At a glance, part of the list above:
Structure (SMILES),Potency,"activity change, negative = inhibition"
Nc1cc(-c2ccccc2)nn1Cc1ccccc1,"inconclusive: 7.94 µM [inhibitor, single point]",
CCCCOc1ccc(/C=C/C(=O)OCC(=O)N2CC(=O)Nc3ccccc32)cc1OCC,,inactive: -7.72%
COc1ccc(/C=C2\SC(=S)N(CCC(=O)NC3=NCCS3)C2=O)cc1OC,"inconclusive: 1.41 µM [activator, partial curve]",
